PubChem BioAssay AID1224826 – NIAID, 2016
Shown is one part, drawn at random, of about 17,000 reagents. About 1,110 of all reagents (6.6%) were called active. 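Active means lowered or raised reporter signal; replicate intensities are raw and not normalised per plate.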 Entries without a mark were called inactive. The numbers tell different reagents against one gene apart. A reagent listed more than once was tested more than once; the source does not tell the runs apart. Not all columns of the deposit are shown.

- Assay: 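Knock-downs that raise or lower Tnf reporter signal after endotoxin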 (primary screen)
- Cell system: RAW264.7 G9 macrophages from mouse bearing reporters for p65 (GFP) and the Tnf promoter (mCherry)
- Reagents: siRNA pool against mouse genes, 100 nM
- Timing: 16 h of LPS stimulation, after 2 days of siRNA transfection
- Treatment: bacterial lipopolysaccharide (Salmonella minnesota R595), 10 ng/ml
- Detection: 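Imaged Tnf reporter mCherry in nuclei, minus background, normalised per plate to the median and expressed as robust z-scores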
- Reading the numbers: Tnf reporter robust z-score: higher = stronger Tnf promoter reporter signal after LPS; Tnf reporter intensity: higher = stronger Tnf promoter reporter signal
- Active means: 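a well counts as active at a score of -1.3 or below (Tlr4 knock-down control median) or above 3 (raised signal); controls and wells holding fewer than 50 cells are excluded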
- Meaning of the calls: active = Tnf reporter clearly lowered or raised; inactive = no clear change in Tnf reporter

no.	gene	reagent no.	Tnf reporter robust z-score	fewer than 50 cells in well	Tnf reporter intensity, replicate 1
1	Lman2 (lectin, mannose-binding 2)	1	0.03	enough cells in well	172
2	Rhox6 (reproductive homeobox 6)	1	2.31	enough cells in well	295
3	Tc2n (tandem C2 domains, nuclear)	1	-0.9	enough cells in well	133
4	Or4k40 (olfactory receptor family 4 subfamily K member 40)	1	0.3	enough cells in well	260
5	Vps25 (vacuolar protein sorting 25)	1	-0.91	enough cells in well	93.5
6	Lrch4	1	1.1	enough cells in well	310
7	Jpt2 (Jupiter microtubule associated homolog 2)	1	-0.53	enough cells in well	171
8	Hes2 (hes family bHLH transcription factor 2)	1	1.72	enough cells in well	418
9	Akr7a5 (aldo-keto reductase family 7, member A5)	1	0.43	enough cells in well	191
10	Fibin (fin bud initiation factor homolog (zebrafish))	1	0.01	enough cells in well	259
11	Rrp8 (ribosomal RNA processing 8)	1	1.86	enough cells in well	256
12	D830050J10Rik (RIKEN cDNA D830050J10 gene)	1	-1.36 (active)	enough cells in well	91.5
13	Lrwd1 (leucine-rich repeats and WD repeat domain containing 1)	1	1.79	enough cells in well	370
14	Msmb (beta-microseminoprotein)	1	0.25	enough cells in well	237
15	Cyp2c23 (cytochrome P450, family 2, subfamily c, polypeptide 23)	1	-1.96 (active)	enough cells in well	61.7
16	Svs3b (seminal vesicle secretory protein 3B)	1	-1.72 (active)	enough cells in well	93.9
17	Adgrf4 (adhesion G protein-coupled receptor F4)	1	0.15	enough cells in well	220
18	Parm1 (prostate androgen-regulated mucin-like protein 1)	1	-0.57	enough cells in well	159
19	Akt1 (Akt serine/threonine kinase 1)	1	1.01	enough cells in well	263
20	Akt1 (Akt serine/threonine kinase 1)	1	0.2	enough cells in well	203
21	Stk-ps2 (serine/threonine kinase 2)	1	-1.04	enough cells in well	121
22	Sntn (sentan, cilia apical structure protein)	1	0.07	enough cells in well	163
23	Pycr1 (pyrroline-5-carboxylate reductase 1)	1	0.38	enough cells in well	359
24	B230220N19Rik (RIKEN cDNA B230220N19 gene)	1	-0.24	enough cells in well	152
25	Zfp709 (zinc finger protein 709)	1	0.46	enough cells in well	247
26	Fxn (frataxin)	1	-0.41	enough cells in well	254
27	Laptm4b (lysosomal-associated protein transmembrane 4B)	1	-0.55	enough cells in well	147
28	Tmed6 (transmembrane p24 trafficking protein 6)	1		fewer than 50 cells per well; well left out of calls	176
29	Dscam (DS cell adhesion molecule)	1		fewer than 50 cells per well; well left out of calls	82
30	Stc1 (stanniocalcin 1)	1	0.79	enough cells in well	184
31	Tom1l2 (target of myb1-like 2 (chicken))	1	0.23	enough cells in well	204
32	Or4k77 (olfactory receptor family 4 subfamily K member 77)	1	2.53	enough cells in well	335
33	Cdc25c (cell division cycle 25C)	1	0.2	enough cells in well	278
34	Eif4ebp2	1	-0.1	enough cells in well	213
35	4932435O22Rik (RIKEN cDNA 4932435O22 gene)	1		fewer than 50 cells per well; well left out of calls	151
36	Ncstn (nicastrin)	1	0.22	enough cells in well	178
37	Or4e2 (olfactory receptor family 4 subfamily E member 2)	1	0.32	enough cells in well	188
38	Serpina6 (serine (or cysteine) peptidase inhibitor, clade A, member 6)	1	-0.55	enough cells in well	210
39	Pigt (phosphatidylinositol glycan anchor biosynthesis, class T)	1	-1.01	enough cells in well	105
40	Zfp503 (zinc finger protein 503)	1	-0.85	enough cells in well	92.7
41	Pdc (phosducin)	1	-0.64	enough cells in well	241
42	Spg7 (SPG7, paraplegin matrix AAA peptidase subunit)	1	0.9	enough cells in well	212
43	Spg7 (SPG7, paraplegin matrix AAA peptidase subunit)	2	0.26	enough cells in well	323
44	Ube2d1 (ubiquitin-conjugating enzyme E2D 1)	1	0.55	enough cells in well	284
45	Itgam (integrin alpha M)	1	0.11	enough cells in well	239
46	Socs7 (suppressor of cytokine signaling 7)	1	0.08	enough cells in well	293
47	Zfp35 (zinc finger protein 35)	1	-0.87	enough cells in well	99.6
48	Gtpbp6 (GTP binding protein 6 (putative))	1	-0.21	enough cells in well	146
49	Rai1 (retinoic acid induced 1)	1	0.39	enough cells in well	379
50	Vac14 (Vac14 homolog (S. cerevisiae))	1		fewer than 50 cells per well; well left out of calls	54
51	Cfap52 (cilia and flagella associated protein 52)	1	-1.66 (active)	enough cells in well	98.7
52	1700019M22Rik (RIKEN cDNA 1700019M22 gene)	1	-0.12	enough cells in well	206
53	Mettl25 (methyltransferase like 25)	1	0.88	enough cells in well	0
54	Rassf3 (Ras association (RalGDS/AF-6) domain family member 3)	1	-0.69	enough cells in well	109
55	Tbcb (tubulin folding cofactor B)	1	-1.41 (active)	enough cells in well	94.1
56	Fut2b (fucosyltransferase 2B)	1	-0.09	enough cells in well	98.8
57	A430085C19 (retired record)	1		fewer than 50 cells per well; well left out of calls	122
58	Pramel37 (PRAME like 37)	1		fewer than 50 cells per well; well left out of calls	228

In a second layout: 4 of the entries above.
gene,reagent no.,Tnf reporter robust z-score,fewer than 50 cells in well,"Tnf reporter intensity, replicate 1"
Vps25 (vacuolar protein sorting 25),1,-0.91,enough cells in well,93.5
Lrch4,1,1.1,enough cells in well,310
Jpt2 (Jupiter microtubule associated homolog 2),1,-0.53,enough cells in well,171
Hes2 (hes family bHLH transcription factor 2),1,1.72,enough cells in well,418
